These results are taken from article PMC6969036 (Nature Communications, 2020).

The chains behind the UniProt entries cited, without tags or fusion partners. Residues count along the entry.
UniProt P61265, residues 162-265: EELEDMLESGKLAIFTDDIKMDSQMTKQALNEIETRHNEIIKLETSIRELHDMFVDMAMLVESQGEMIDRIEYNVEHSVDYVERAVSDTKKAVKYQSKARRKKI
UniProt P46096: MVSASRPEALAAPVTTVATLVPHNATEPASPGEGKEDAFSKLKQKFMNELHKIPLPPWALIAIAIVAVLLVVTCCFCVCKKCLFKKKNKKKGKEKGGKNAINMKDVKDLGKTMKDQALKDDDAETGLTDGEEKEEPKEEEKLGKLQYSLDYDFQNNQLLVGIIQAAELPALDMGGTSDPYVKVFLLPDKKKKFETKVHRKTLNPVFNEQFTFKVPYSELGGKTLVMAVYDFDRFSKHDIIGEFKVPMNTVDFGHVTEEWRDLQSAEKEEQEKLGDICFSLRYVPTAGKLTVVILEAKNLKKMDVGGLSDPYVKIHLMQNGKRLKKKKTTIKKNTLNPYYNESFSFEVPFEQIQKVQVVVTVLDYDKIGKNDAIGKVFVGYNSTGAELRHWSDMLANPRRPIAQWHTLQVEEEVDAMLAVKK

Results are given in words; binding and its absence hold for the method and conditions named. Binding seen in cells or lysates may run through a third protein. Some entries that bind do so weakly or less than the wild type.

The assay has as its target GST-syntaxin1-SNARE (GST-fused SNARE domain of rat syntaxin1B) (rat) (UniProt P61265). Description: pull-down; lysate (200 µg) of 293T cells expressing Syt I and STAND-A36 or STAND-M4 mixed with 2 µg purified GST-Syx1-SNARE or GST, anti-GST antibody and Dynabeads protein G, 500 µM CaCl2, 1 h 4 °C; blotted with anti-Syt I; only the target purified.

On to “Syt I (synaptotagmin I) expressed in 293T cells (from UniProt P46096 1-421)”, for which the binding entry was “binds”.
